From PMC11647514 come the findings set out here.

The chains behind the UniProt entries cited, without tags or fusion partners.
UniProt P15927: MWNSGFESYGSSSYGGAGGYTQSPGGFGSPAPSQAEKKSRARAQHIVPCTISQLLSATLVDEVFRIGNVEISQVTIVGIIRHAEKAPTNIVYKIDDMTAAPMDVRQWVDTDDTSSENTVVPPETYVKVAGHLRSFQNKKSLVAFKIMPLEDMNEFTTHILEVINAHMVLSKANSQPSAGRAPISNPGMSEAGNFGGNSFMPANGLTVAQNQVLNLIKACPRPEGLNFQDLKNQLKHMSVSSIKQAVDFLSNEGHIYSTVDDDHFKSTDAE

Assay [1] deals with T1, O-GlcNAc transferase (OGT), endogenous (human (endogenous in 293T)) (UniProt O15294).
T1 sequence: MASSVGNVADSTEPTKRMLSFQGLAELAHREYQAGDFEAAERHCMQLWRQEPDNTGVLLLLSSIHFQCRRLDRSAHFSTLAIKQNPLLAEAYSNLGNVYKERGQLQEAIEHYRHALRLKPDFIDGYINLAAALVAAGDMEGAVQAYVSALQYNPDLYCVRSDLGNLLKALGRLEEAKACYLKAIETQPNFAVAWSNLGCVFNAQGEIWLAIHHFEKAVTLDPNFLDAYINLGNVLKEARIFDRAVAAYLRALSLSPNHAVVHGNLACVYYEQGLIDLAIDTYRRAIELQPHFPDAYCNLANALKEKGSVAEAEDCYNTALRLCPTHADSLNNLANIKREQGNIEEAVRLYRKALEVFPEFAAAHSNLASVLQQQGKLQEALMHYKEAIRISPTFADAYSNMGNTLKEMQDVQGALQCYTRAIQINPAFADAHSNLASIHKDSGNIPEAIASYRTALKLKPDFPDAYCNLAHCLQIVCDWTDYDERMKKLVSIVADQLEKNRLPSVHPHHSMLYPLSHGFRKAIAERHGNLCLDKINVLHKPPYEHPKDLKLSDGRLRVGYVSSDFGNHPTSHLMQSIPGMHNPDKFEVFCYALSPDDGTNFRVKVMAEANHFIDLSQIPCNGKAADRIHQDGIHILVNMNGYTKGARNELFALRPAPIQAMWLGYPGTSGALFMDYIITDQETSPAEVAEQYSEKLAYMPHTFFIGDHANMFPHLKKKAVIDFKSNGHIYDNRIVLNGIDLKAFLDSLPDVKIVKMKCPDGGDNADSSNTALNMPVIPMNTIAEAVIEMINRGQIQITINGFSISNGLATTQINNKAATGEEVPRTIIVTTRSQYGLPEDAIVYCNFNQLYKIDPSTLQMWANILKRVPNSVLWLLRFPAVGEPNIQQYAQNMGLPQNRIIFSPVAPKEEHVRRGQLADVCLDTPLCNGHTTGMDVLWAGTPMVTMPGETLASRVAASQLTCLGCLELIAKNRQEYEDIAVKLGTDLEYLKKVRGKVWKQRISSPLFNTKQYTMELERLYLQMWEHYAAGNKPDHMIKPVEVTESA
In words: co-IP; 293T cell lysates immunoprecipitated with anti-OGT antibodies, immunoblotted with anti-RPA2; endogenous proteins; with or without etoposide treatment (interaction reduced after etoposide). In general terms: A western blot detects proteins with antibodies after separation by electrophoresis.

A further assay addresses MBP-RPA2 (UniProt P15927). In words: pull-down; recombinant MBP-RPA2 and GST-OGT proteins incubated and subject to pulldown; MBP-RPA2 as bait; both purified.
A further assay concerns the target Flag-RPA2 (UniProt P15927). Nature of the assay: co-IP; 293T cells co-transfected with HA-OGT and Flag-RPA2; lysates immunoprecipitated with anti-Flag antibody and immunoblotted; with or without etoposide treatment (interaction diminished by etoposide).

No constants are given. Whether binding was seen depends on the method and setting. For part of these data: In cells and extracts the contact can be indirect. Some results given as binding are weak or reduced against the parent protein; the word gives no strength. For part of these data: Sequences can lack the tags named with a protein.

As for “Replication Protein A2 (RPA2), endogenous (from UniProt P15927 1-270)”, in assay [1], the binding entry is “binds”.

B1: GST-OGT (enzyme, UniProt O15294 1-1046)
chain: T1 sequence
On to B1, for which the binding result with MBP-RPA2 is “binds”.

B2: HA-OGT (enzyme, UniProt O15294 1-1046)
chain: T1 sequence
For the molecule B2, the binding entry with Flag-RPA2 is given as “binds”.
